Source: PMC11027413
Results are given in words; binding and its absence hold for the method and conditions named. In cells and extracts the contact can be indirect. These calls come from enrichment with a bait or labelling near it, and not all partners need be listed. Sequences can lack the tags named with a protein.

By UniProt entry, the sequences of proteins in these tests, tags left out.
UniProt P50750: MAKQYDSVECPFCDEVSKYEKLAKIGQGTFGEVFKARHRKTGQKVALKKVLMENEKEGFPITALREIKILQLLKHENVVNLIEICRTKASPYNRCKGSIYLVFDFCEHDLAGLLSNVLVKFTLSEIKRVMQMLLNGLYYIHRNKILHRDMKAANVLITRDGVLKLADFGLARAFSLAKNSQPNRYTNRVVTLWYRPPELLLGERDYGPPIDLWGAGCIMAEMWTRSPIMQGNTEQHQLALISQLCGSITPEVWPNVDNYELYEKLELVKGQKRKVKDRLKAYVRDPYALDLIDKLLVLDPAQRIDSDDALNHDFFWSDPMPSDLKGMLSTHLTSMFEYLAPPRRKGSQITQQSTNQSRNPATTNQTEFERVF
UniProt O94992: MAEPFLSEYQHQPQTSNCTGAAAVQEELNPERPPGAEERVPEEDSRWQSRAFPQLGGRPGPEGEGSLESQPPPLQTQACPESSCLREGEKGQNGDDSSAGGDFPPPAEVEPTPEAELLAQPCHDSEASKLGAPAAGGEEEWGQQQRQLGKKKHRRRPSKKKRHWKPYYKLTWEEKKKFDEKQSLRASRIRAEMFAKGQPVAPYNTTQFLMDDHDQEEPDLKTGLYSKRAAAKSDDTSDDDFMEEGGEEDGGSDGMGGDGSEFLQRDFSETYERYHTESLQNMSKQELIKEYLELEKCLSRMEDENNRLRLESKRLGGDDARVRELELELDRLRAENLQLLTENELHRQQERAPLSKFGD
UniProt Q13263: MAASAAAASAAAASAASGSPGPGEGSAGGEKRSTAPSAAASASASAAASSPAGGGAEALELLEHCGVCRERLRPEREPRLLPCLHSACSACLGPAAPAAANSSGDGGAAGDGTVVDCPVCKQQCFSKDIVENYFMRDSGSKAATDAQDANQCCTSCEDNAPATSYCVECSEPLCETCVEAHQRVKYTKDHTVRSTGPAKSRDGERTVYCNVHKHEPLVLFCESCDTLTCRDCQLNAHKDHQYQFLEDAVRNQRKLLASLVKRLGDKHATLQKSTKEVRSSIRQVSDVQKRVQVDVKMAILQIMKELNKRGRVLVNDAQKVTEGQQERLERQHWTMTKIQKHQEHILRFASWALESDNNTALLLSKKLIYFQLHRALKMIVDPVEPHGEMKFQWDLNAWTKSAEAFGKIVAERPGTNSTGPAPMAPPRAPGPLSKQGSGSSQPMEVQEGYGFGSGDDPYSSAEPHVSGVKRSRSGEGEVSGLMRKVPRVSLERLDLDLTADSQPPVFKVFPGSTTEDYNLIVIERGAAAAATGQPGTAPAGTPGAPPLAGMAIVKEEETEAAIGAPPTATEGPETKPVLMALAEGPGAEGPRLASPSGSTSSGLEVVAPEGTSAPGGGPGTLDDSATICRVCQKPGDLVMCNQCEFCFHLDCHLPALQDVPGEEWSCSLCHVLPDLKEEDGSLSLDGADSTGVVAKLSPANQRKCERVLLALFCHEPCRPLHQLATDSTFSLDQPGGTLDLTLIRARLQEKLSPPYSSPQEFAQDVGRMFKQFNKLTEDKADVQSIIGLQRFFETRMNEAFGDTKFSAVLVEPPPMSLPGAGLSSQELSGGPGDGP

T1: FLAG-HRV-tagged RBM22 (human) (UniProt Q9NW64)
T1 sequence: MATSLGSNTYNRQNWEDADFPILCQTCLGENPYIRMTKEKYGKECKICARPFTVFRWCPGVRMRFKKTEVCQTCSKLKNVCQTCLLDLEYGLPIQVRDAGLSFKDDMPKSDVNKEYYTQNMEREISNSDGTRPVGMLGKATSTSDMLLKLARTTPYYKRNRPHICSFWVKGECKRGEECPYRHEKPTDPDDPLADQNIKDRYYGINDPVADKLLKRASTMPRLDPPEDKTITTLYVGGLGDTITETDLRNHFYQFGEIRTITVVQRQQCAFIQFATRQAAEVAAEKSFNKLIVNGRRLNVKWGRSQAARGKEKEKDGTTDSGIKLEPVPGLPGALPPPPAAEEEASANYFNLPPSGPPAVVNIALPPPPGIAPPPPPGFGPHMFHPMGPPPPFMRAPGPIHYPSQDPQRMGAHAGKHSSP

B1: LARP7 (protein, UniProt Q4G0J3 1-582)
chain: METESGNQEKVMEEESTEKKKEVEKKKRSRVKQVLADIAKQVDFWFGDANLHKDRFLREQIEKSRDGYVDISLLVSFNKMKKLTTDGKLIARALRSSAVVELDLEGTRIRRKKPLGERPKDEDERTVYVELLPKNVNHSWIERVFGKCGNVVYISIPHYKSTGDPKGFAFVEFETKEQAAKAIEFLNNPPEEAPRKPGIFPKTVKNKPIPALRVVEEKKKKKKKKGRMKKEDNIQAKEENMDTSNTSISKMKRSRPTSEGSDIESTEPQKQCSKKKKKRDRVEASSLPEVRTGKRKRSSSEDAESLAPRSKVKKIIQKDIIKEASEASKENRDIEISTEEEKDTGDLKDSSLLKTKRKHKKKHKERHKMGEEVIPLRVLSKSEWMDLKKEYLALQKASMASLKKTISQIKSESEMETDSGVPQNTGMKNEKTANREECRTQEKVNATGPQFVSGVIVKIISTEPLPGRKQVRDTLAAISEVLYVDLLEGDTECHARFKTPEDAQAVINAYTEINKKHCWKLEILSGDHEQRYWQKILVDRQAKLNQPREKKRGTEKLITKAEKIRLAKTQQASKHIRFSEYD
B2: AFF4 (protein, UniProt Q9UHB7 1-1163)
chain: MNREDRNVLRMKERERRNQEIQQGEDAFPPSSPLFAEPYKVTSKEDKLSSRIQSMLGNYDEMKDFIGDRSIPKLVAIPKPTVPPSADEKSNPNFFEQRHGGSHQSSKWTPVGPAPSTSQSQKRSSGLQSGHSSQRTSAGSSSGTNSSGQRHDRESYNNSGSSSRKKGQHGSEHSKSRSSSPGKPQAVSSLNSSHSRSHGNDHHSKEHQRSKSPRDPDANWDSPSRVPFSSGQHSTQSFPPSLMSKSNSMLQKPTAYVRPMDGQESMEPKLSSEHYSSQSHGNSMTELKPSSKAHLTKLKIPSQPLDASASGDVSCVDEILKEMTHSWPPPLTAIHTPCKTEPSKFPFPTKESQQSNFGTGEQKRYNPSKTSNGHQSKSMLKDDLKLSSSEDSDGEQDCDKTMPRSTPGSNSEPSHHNSEGADNSRDDSSSHSGSESSSGSDSESESSSSDSEANEPSQSASPEPEPPPTNKWQLDNWLNKVNPHKVSPASSVDSNIPSSQGYKKEGREQGTGNSYTDTSGPKETSSATPGRDSKTIQKGSESGRGRQKSPAQSDSTTQRRTVGKKQPKKAEKAAAEEPRGGLKIESETPVDLASSMPSSRHKAATKGSRKPNIKKESKSSPRPTAEKKKYKSTSKSSQKSREIIETDTSSSDSDESESLPPSSQTPKYPESNRTPVKPSSVEEEDSFFRQRMFSPMEEKELLSPLSEPDDRYPLIVKIDLNLLTRIPGKPYKETEPPKGEKKNVPEKHTREAQKQASEKVSNKGKRKHKNEDDNRASESKKPKTEDKNSAGHKPSSNRESSKQSAAKEKDLLPSPAGPVPSKDPKTEHGSRKRTISQSSSLKSSSNSNKETSGSSKNSSSTSKQKKTEGKTSSSSKEVKEKAPSSSSNCPPSAPTLDSSKPRRTKLVFDDRNYSADHYLQEAKKLKHNADALSDRFEKAVYYLDAVVSFIECGNALEKNAQESKSPFPMYSETVDLIKYTMKLKNYLAPDATAADKRLTVLCLRCESLLYLRLFKLKKENALKYSKTLTEHLKNSYNNSQAPSPGLGSKAVGMPSPVSPKLSPGNSGNYSSGASSASASGSSVTIPQKIHQMAASYVQVTSNFLYATEIWDQAEQLSKEQKEFFAELDKVMGPLIFNASIMTDLVRYTRQGLHWLRQDAKLIS

Target: T1, FLAG-HRV-tagged RBM22 (human)
Test: affinity purification with mass spectrometry; FLAG immunoprecipitation (ANTI-FLAG M2 Affinity Gel, overnight, 4°C) from benzonase-treated lysate of HepG2 cells induced with Dox to express FLAG-RBM22; eluted with HRV 3C protease; label-free quantitative mass spectrometry against cells without Dox

binding, binds:
CDK9 (from UniProt P50750 1-372) (enzyme)
HEXIM1 (from UniProt O94992 1-359)
TRIM28 (from UniProt Q13263 1-835)
B1
B2
